Laboratory results as given in PubChem BioAssay AID2685 (National Center for Advancing Translational Sciences (NCATS), 2010).
This is one part of the list. Shown are side measurements of this screen, not its main read-out; they come without a call. The list favours compounds with an active or inconclusive main result. Potencies come from curve fits of mixed quality, noted in brackets.

Experiment: qHTS Assay for Lipid Storage Modulators in Drosophila S3 Cells;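 on cell number change: cells counted by Cell Tracker Red CMTPX staining in the red channel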
Conditions: BODIPY lipid droplet fluorescence, 18-24 h; for cell number change: measured here: cell count max response, cells fed with added oleic acid
Procedure, shortened: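 Drosophila S3 cells got compounds at several concentrations plus oleic acid (400 uM solution). Laser-scanning cytometry with 488 nm excitation read lipid droplets at 500-530 nm and cells at 575-640 nm. Percent activity was relative to 20 uM Triacsin C.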

[1] = measured here: lipid fluorescence (Fed channel) AC50, cells fed with added oleic acid
[2] = measured here: cell number channel AC50, cells fed with added oleic acid

Row | Compound | cell number change [%] | AC50 [1] | AC50 [2]
1 | Cc1ccc2nc(N3CCN(c4ccccc4F)CC3)c(C=O)c(=O)n2c1 | 14 | 0.0058 µM [rising, full curve, poor fit] | –
2 | CCCNC(=O)C(Cc1ccc(Br)cc1)NC(=O)c1ccc(C#N)cc1 (stereo unspecified) | 3.31 | 1.16 µM [falling, full curve] | 0.92 µM [falling, full curve]
3 | O=C(NCc1ccc2c(c1)OCO2)c1nc(S(=O)(=O)Cc2ccccc2F)ncc1Cl | -25.4 | 3.66 µM [falling, full curve] | –
4 | CCCCOc1ccccc1NC(=O)CC1Nc2ccccc2NC1=O (stereo unspecified) | -2.41 | – | –
5 | COc1cc(C(=O)COC(=O)c2cnc(C)cn2)ccc1OC(F)F | -46 | 29.1 µM [rising, single point] | 18.4 µM [falling, partial curve, poor fit]
6 | COc1cc(NC(=O)Cn2ncc(Cl)c(Cl)c2=O)c(C)cc1[N+](=O)[O-] | -21.4 | – | –
7 | O=C1c2ccccc2OC2(C=Cc3ccccc3O2)N1Cc1ccccc1 (stereo unspecified) | – | 4.11 µM [rising, single point] | 2.59 µM [rising, single point]
8 | COCCN(C(=O)c1ccc(-c2ccc(Cl)cc2)o1)c1c(N)n(Cc2ccccc2)c(=O)[nH]c1=O | 62.9 | – | 29.1 µM [rising, single point]
9 | O=C(CSc1nc2nccnc2c(=O)n1Cc1cccs1)Nc1ccccc1F | – | 0.58 µM [falling, single point] | –
10 | COc1cc(CNC2CCCC2)cc(Cl)c1OCc1ccccc1F | 38.8 | – | 29.1 µM [rising, single point]
11 | CN1C(=O)N(CC(=O)N2CCN(S(=O)(=O)/C=C/c3ccccc3)CC2)C(=O)C12CCCCC2 | -4.92 | 29.1 µM [rising, single point] | –
12 | O=C(/C=C/c1ccc([N+](=O)[O-])cc1)N1CCN(Cc2ccccc2)CC1 | -22.3 | – | –
13 | O=Nc1c(O)[nH]c2ccc(F)cc12 | -32.2 | 29.1 µM [falling, single point] | 2.59 µM [falling, full curve]
14 | C=C(C)CNc1cc(S(=O)(=O)N2CCOCC2)ccc1Oc1ccccc1 | 3.5 | 0.731 µM [falling, full curve, poor fit] | –
15 | CCCNC(=O)c1ccc(N2CCC3(CC2)CC(c2cccc(Br)c2)=NO3)c(NC(=O)c2c(Cl)cccc2Cl)c1 | 20.2 | 23.1 µM [rising, single point] | –
16 | CCOC(=O)c1cc(C#N)c(N2CCCC2)nc1-c1ccccc1 | -12.7 | – | –
17 | Cc1nc(=O)c(-c2ccccc2)c(C)n1-c1ccc(C(=O)O)cc1 | – | 0.103 µM [falling, full curve, poor fit] | 0.517 µM [falling, full curve]
18 | Cc1ccc2c(C)c(C(=O)N(C)Cc3ccncn3)oc2c1C | 9.48 | 29.1 µM [rising, single point] | –
19 | Clc1ccc(CSc2nnc(-c3c[nH]c4ccccc34)o2)cc1 | -64.9 | – | 29.1 µM [falling, single point]
20 | O=C(c1ccco1)N1CCN(C(=O)c2cc(-c3ccccc3)nc3ccccc23)CC1 | – | 6.51 µM [falling, single point] | –

Row | Compound | cell number change [%] | AC50 [1] | AC50 [2]
21 | CCN(CC)CCCC1(CN)OCCc2ccccc21 (stereo unspecified) | -11.8 | 16.4 µM [falling, partial curve, poor fit] | –
22 | CC(=O)c1ccc(Oc2cc(C)nc(NCc3ccccc3)n2)cc1 | – | 0.0731 µM [falling, full curve, poor fit] | –
23 | O=C(CSCc1ccccc1)NCc1ccc2c(c1)OCO2 | 75 | 4.11 µM [rising, partial curve] | 20.6 µM [rising, partial curve]
24 | Cc1ccc(NC(=O)C2CCCN(C(=O)Nc3ccc(F)cc3)C2)cc1 (stereo unspecified) | 18.8 | – | –
25 | O=S(=O)(NCC1CCCO1)c1ccc2c(c1)OCCO2 (stereo unspecified) | -101 | 0.651 µM [falling, single point] | 32.6 µM [falling, partial curve]
26 | CCOc1cccc(-c2c(C(=O)N/N=C(\C)c3cccs3)nnn2-c2nonc2N)c1 | -22.4 | 29.1 µM [rising, single point] | –
27 | Cc1ccccc1NC(=O)OCc1ccccc1 | 16.1 | 29.1 µM [rising, single point] | –
28 | Cn1c(=O)oc2cc(S(=O)(=O)N3CCC(C(=O)NCc4ccc(F)cc4)CC3)ccc21 | 9.56 | – | –
29 | Clc1ccccc1Nc1c2c(nc3ncnn13)CCC2 | 13.4 | 0.259 µM [rising, full curve] | –
30 | O=C(COC(=O)C1CC(=O)N(Cc2ccccc2)C1)Nc1ccc(Cl)cc1F (stereo unspecified) | -35.8 | 1.46 µM [falling, partial curve] | –
31 | COc1ccc(CCC(=O)NCCS(=O)(=O)N2CCN(c3ccc(F)cc3)CC2)cc1 | -15.3 | 13 µM [falling, partial curve] | –
32 | Nc1c(Cl)ncnc1NCCc1ccc(O)cc1 | -38.7 | 0.146 µM [falling, full curve, poor fit] | 11.6 µM [falling, partial curve]
33 | CCOc1ccc(NC(=O)CN(C)C(=O)Cc2sc(C)nc2-c2ccc(F)cc2)cc1OCC | 12.3 | 0.326 µM [rising, full curve] | –
34 | COc1ccc(-c2nc(-n3c(C)c(C(C)=O)c(C(C)=O)c3C)sc2C)cc1 | -10.1 | – | –
35 | Cc1ccc(N2CCN(C(=O)c3ccccc3NC(=O)/C=C\C(=O)O)CC2)cc1 | -18.1 | – | –
36 | Cc1ccc(N2C(=O)C3C4C=CC(CC4)C3C2=O)cc1Br (stereo unspecified) | -6.93 | – | –
37 | Cc1ccc(NC(=O)N(Cc2cccs2)Cc2cc3cc4c(cc3[nH]c2=O)OCO4)cc1 | 7.1 | 0.411 µM [rising, full curve, poor fit] | –
38 | CCCCN(C)CCNC(=O)c1ccc2c(c1)NC(=O)C(N1CCCCC1)S2 (stereo unspecified) | 7.28 | – | –
39 | CC(=O)C1=C(O)C(=O)N(CCCN2CCOCC2)C1c1ccccc1[N+](=O)[O-] (stereo unspecified) | 18.4 | 0.13 µM [rising, full curve, poor fit] | –

Taken from above.
In cell number change [%], `CCOC(=O)c1cc(C#N)c(N2CCCC2)nc1-c1ccccc1` has the entry -12.7
In AC50 [1], `O=C(c1ccco1)N1CCN(C(=O)c2cc(-c3ccccc3)nc3ccccc23)CC1` has the entry 6.51 µM [falling, single point]
